# Experimental data reported in PubChem BioAssay AID493014 (National Center for Advancing Translational Sciences (NCATS), 2011).
# The other results are listed elsewhere or left out. The main result of the screen is listed elsewhere. These columns were measured beside it and carry no call. The list favours compounds with an active or inconclusive main result. Potencies come from curve fits of mixed quality, noted in brackets.
# Assay: qHTS Assay to Find Inhibitors of Chronic Active B-Cell Receptor Signaling
# Details: ABC-DLBCL IkBa-CBG/CBR reporter, luminescence ratio (green luciferase fused to IkBa over red control in TMD8 lymphoma cells), 4 h
# How it was run: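 Doxycycline induced both beetle luciferases in TMD8 lymphoma cells; IKK-driven degradation limits the IkappaBalpha-fused green signal, while red luminescence normalises for cell number and nonspecific effects. Compounds tested up to 46 uM, 4 hrs.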
# [1] = measured here: CBR red luminescence, cell number
# [2] = measured here: IkBa-CBG green luminescence
SMILES,AC50 [1],AC50 [2]
CCC(Nc1nc(-c2ccccc2)nc2ccccc12)C(=O)O (stereo not given),"18.4 µM [falling, single point]",–
O=C(O)CSCC(=O)Nc1ccc(C(=O)O)cc1,"25.9 µM [falling, single point]",–
CN(C)c1ccc(/C=C/C(=O)c2cccc(Br)c2)cc1,"5.01 µM [rising, full curve, poor fit]",–
O=C(O)c1[nH]c2ccccc2c1C(c1cc(Br)ccc1O)c1c(C(=O)O)[nH]c2ccccc12,"31.6 µM [rising, single point]",–
CCOC(=O)Cc1csc(NC(=S)NC(=O)c2ccc(C)cc2)n1,"6.51 µM [falling, partial curve]","20.6 µM [falling, single point]"
NCCNC(=O)Cc1cccc(NC(=O)Cc2ccc(Nc3ncnc4c3ncn4[C@@H]3O[C@H](CO)[C@@H](O)[C@H]3O)cc2)c1,–,"2.82 µM [falling, partial curve]"
CC1(C)Cc2c(cnn2-c2ccccc2)C(NC(=O)c2ccoc2)C1 (stereo not given),"3.55 µM [rising, partial curve, poor fit]",–
COc1cc(NC(=O)c2ccccc2[N+](=O)[O-])ccc1NC(=O)C(C)C,"7.31 µM [rising, partial curve, poor fit]",–
CCOc1ccccc1NC(=O)CN(c1ccc(OC)cc1)S(=O)(=O)c1c(C)noc1C,"12.6 µM [rising, partial curve]","12.6 µM [falling, single point]"
O=C(Nc1ccccn1)c1cc2ccccc2o1,"3.66 µM [falling, full curve]",–
Cc1ccnc(NC(=O)c2ccc(S(=O)(=O)NCc3ccco3)cc2)c1,"23.1 µM [falling, single point]",–
C=CCNC(=O)c1c2c(nc3ccccc13)-c1ccccc1CC2,"6.31 µM [falling, single point]",–
Cc1cccc(CS(=O)(=O)c2ncc(Cl)c(C(=O)Nc3ccc(F)cc3)n2)c1,"11.2 µM [falling, partial curve, poor fit]",–
CCCN1CCN(C(=O)c2ccc(-c3ccc([N+](=O)[O-])cc3)o2)CC1,"7.31 µM [rising, partial curve]",–
CC(=O)Nc1ccc(C=NNC(=O)c2ccc(NS(=O)(=O)c3cccs3)cc2)cc1,"11.6 µM [falling, partial curve]",–
COc1ccc(C2SCC(=O)N2CCCN(C)C)cc1 (stereo not given),"9.2 µM [rising, partial curve, poor fit]",–
Cc1cccc(NC(=O)CSCC(=O)Nc2cc(Cl)ccc2N2CCOCC2)c1,"18.4 µM [falling, single point]",–
CCCCCCCCCCn1c2c(c(=N)c3c1CCC3)CCC2,"8.91 µM [falling, single point]",–
CC1=CC(=O)C=C(C)C1=NOS(=O)(=O)c1ccccc1,"29.1 µM [falling, single point]",–
Cc1ccc(NC(=O)COC(=O)c2cc(Cl)ccc2[N+](=O)[O-])c(C)c1,"0.00411 µM [rising, full curve, poor fit]",–

# Reprinted at random: 4 compounds from above.
SMILES,AC50 [1],AC50 [2]
Cc1ccnc(NC(=O)c2ccc(S(=O)(=O)NCc3ccco3)cc2)c1,"23.1 µM [falling, single point]",–
CCCN1CCN(C(=O)c2ccc(-c3ccc([N+](=O)[O-])cc3)o2)CC1,"7.31 µM [rising, partial curve]",–
Cc1cccc(CS(=O)(=O)c2ncc(Cl)c(C(=O)Nc3ccc(F)cc3)n2)c1,"11.2 µM [falling, partial curve, poor fit]",–
CN(C)c1ccc(/C=C/C(=O)c2cccc(Br)c2)cc1,"5.01 µM [rising, full curve, poor fit]",–

# (listing goes on)

SMILES,AC50 [1],AC50 [2]
O=C(COc1cccc2c1CCNC2=O)Nc1cccc(F)c1,"29.1 µM [falling, single point]",–
CCOC(=O)c1c(C)[nH]c(C2=NNC(=NC(C)COC)SC2)c1C (stereo not given),"22.4 µM [falling, single point]",–
COC(=O)c1ccc2nc(NC(=O)CN3C(=O)CCC3=O)sc2c1,"10 µM [falling, partial curve, poor fit]",–
COc1ccc(-c2cccc(NS(=O)(=O)c3cc([N+](=O)[O-])ccc3C)c2)nn1,"0.82 µM [falling, full curve, poor fit]",–
CC(C)c1nnc(NC(=O)c2nc(S(=O)(=O)Cc3ccc(F)cc3)ncc2Cl)s1,"22.4 µM [falling, single point]","11.2 µM [rising, partial curve, poor fit]"
COC(=O)c1ccc(CSc2nc3ccccc3c(=O)n2N)cc1,"3.16 µM [falling, partial curve, poor fit]",–
CCOC(=O)c1c(N2C(=O)Nc3ccccc3N2O)n[nH]c1-c1cccc(OC)c1,"1.78 µM [falling, partial curve, poor fit]",–
CN(/N=C/c1ccc2c(c1)OCO2)c1ccccc1,"1.64 µM [rising, full curve, poor fit]",–
BrC(=C\c1ccccc1)/C=N/N1CCN(Cc2ccccc2)CC1,"3.26 µM [falling, single point]",–
CCOc1ccccc1-c1nc(-c2cc3ccc(C)cc3[nH]c2=O)no1,"0.164 µM [falling, full curve, poor fit]",–
CCN(CC)c1ccc(/C=C2/C(=O)N(c3ccc([N+](=O)[O-])cc3)N=C2N2CCOCC2)cc1,"35.5 µM [rising, single point]",–
COC(=O)[C@@]12OC[C@]34[C@H]([C@@H](O)[C@@H]1O)[C@@]1(C)C(=O)C(O[C@@H]5OC(CO)[C@@H](O)[C@@H](O)[C@@H]5O)=C[C@@H](C)[C@@H]1C[C@H]3OC(=O)[C@H](OC(=O)/C=C(\C)C(C)(C)OC(C)=O)[C@@H]24 (stereo not given in full),"4.61 µM [falling, full curve]","7.31 µM [rising, partial curve, poor fit]"
Cc1cc(Cl)c2oc(C(=O)N(C)Cc3cc(C)[nH]n3)c(C)c2c1,"0.141 µM [rising, full curve, poor fit]",–
COc1ccc(-c2n[nH]c(=S)n2-c2ccc3c(c2)OCCO3)cc1,"29.1 µM [rising, single point]",–
COc1ccc(C)cc1NC(=O)c1cc2c(s1)CCC2,"1.84 µM [rising, partial curve, poor fit]",–
c1ccc2c(c1)nc(N1CCOCC1)c1nnnn12,"4.11 µM [falling, full curve]",–
O=C(c1ccccc1O)N1N=C(C(F)(F)F)CC1(O)c1ccc([N+](=O)[O-])cc1 (stereo not given),"22.4 µM [falling, single point]",–
CC(=O)Nc1ccc(Sc2ncccc2C(=O)Nc2ccc(OC(F)(F)F)cc2)cn1,"6.51 µM [falling, full curve, poor fit]",–
Cc1ccc(Cn2nc(C)c(NC(=O)c3cc(C)no3)c2C)cc1,"0.731 µM [falling, full curve, poor fit]",–
O=C(O)CCc1ccc(-c2ccc(Br)cc2)o1,"35.5 µM [falling, single point]",–

SMILES,AC50 [1],AC50 [2]
COc1ccc(C(=O)Nc2nc(N)n(-c3ccccc3)n2)cc1OC,"6.31 µM [rising, partial curve, poor fit]",–
CCOC(=O)C1=C(N)Oc2ccc3ccccc3c2C1c1ccc(O)c(OC)c1 (stereo not given),"35.5 µM [falling, single point]","14.1 µM [falling, partial curve, poor fit]"
CNC(=O)C1CC(=O)N(CCCc2ccccc2)C(=Nc2ccccc2)S1 (stereo not given),"11.6 µM [falling, partial curve, poor fit]",–
Cc1cccc(C(=O)NCC(=O)OCCOc2ccccc2Cl)c1,"25.9 µM [rising, single point]",–
COc1ccc(OC(=O)NCCc2ccccc2)cc1,"35.5 µM [falling, single point]",–
COc1ccc(OCCCC(=O)Nc2nc(-c3ccccn3)cs2)cc1,–,"25.1 µM [falling, single point]"
COc1ccc(-n2nnnc2SCC(=O)c2cccc(OC)c2)cc1,–,"29.1 µM [falling, single point]"
O=C(O)c1ccc(/C=N/n2cc(-c3ccccc3)[nH]c2=S)cc1,"10 µM [falling, partial curve, poor fit]",–
CN(C)CC(c1ccccc1)c1ccccc1,"2.82 µM [falling, full curve, poor fit]",–
O=C(NCc1ccncc1)c1cc(-c2ccc(Cl)cc2)oc1C(F)(F)F,"12.6 µM [rising, partial curve, poor fit]",–
CCOC(=O)N1CCC(NC(=O)c2ccc3c(c2)N(Cc2ccccc2)CCS3)CC1,"5.8 µM [falling, single point]",–
Cn1c(=O)n(C)c2cc(N3CCOCC3)c(NC(=O)c3cccc(Cl)c3)cc21,"2.82 µM [rising, partial curve, poor fit]",–
CC(=O)N1CCN(S(=O)(=O)c2c(F)cc(F)c(Cl)c2F)CC1,"35.5 µM [rising, partial curve, poor fit]",–
COc1cc(/C=C\C(=O)OCn2nnc3ccccc3c2=O)cc(OC)c1OC,"6.31 µM [rising, partial curve]","12.6 µM [falling, partial curve, poor fit]"
Cc1ccc(-n2nc(C)c3c(C)cc(=O)[nH]c32)cc1,"18.4 µM [falling, single point]",–
CCOc1cccc(CN2CCCC(C(=O)Nc3cccc(-n4cccn4)c3)C2)c1 (stereo not given),"15.8 µM [falling, single point]",–
COCCN1C=C2C(=O)C(C)(OC(=O)c3cccs3)C(=O)C=C2C=C1CCCC(=O)OC (stereo not given),"0.316 µM [rising, full curve, poor fit]",–
Cc1ccc(C(=O)c2nocc2C(=O)c2cccs2)cc1,"14.1 µM [rising, partial curve, poor fit]",–
CCc1nnc(NS(=O)(=O)c2ccc(NC(=S)NC(=O)/C=C/c3ccccc3)cc2)s1,"29.1 µM [falling, single point]",–
